These are yes or no findings as the source states them, for the method shown. Some binding calls cover weakened binding; strength is not graded here.
Biological target: 85 kD protein of BALB/c 3T3 cells (mouse) (UniProt P26450)
Experiment: competition: peptide preincubated with 3T3 lysate before the immobilized receptor

By UniProt entry, the sequences of proteins in these tests, tags left out. Residues count along the entry.
UniProt P26450, residues 2-724: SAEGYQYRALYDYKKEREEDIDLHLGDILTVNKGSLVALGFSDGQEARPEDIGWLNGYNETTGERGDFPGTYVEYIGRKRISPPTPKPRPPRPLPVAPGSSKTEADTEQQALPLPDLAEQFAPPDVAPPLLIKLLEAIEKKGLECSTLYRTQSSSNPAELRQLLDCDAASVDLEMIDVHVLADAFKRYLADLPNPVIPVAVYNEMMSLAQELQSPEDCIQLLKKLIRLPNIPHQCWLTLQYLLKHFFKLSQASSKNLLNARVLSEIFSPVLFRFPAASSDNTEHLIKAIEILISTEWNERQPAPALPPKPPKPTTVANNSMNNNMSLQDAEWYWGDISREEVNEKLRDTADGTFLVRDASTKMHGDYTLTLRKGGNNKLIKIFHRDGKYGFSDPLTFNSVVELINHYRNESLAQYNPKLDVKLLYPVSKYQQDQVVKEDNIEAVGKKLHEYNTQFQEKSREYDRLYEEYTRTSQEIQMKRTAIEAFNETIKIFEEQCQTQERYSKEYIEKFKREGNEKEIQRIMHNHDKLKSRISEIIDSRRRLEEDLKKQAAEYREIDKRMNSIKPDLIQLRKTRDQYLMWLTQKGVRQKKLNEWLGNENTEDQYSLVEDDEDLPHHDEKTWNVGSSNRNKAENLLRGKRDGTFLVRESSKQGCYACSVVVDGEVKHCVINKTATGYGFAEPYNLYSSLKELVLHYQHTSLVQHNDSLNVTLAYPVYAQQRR

Row | binding | Binder
1 | binds | MDMSKDESIDYVPMLDM (phosphotyrosine at position 719 (the only Tyr of the peptide)) [peptide Y719P short]
2 | binds | GGYMDMSKDESID (phosphotyrosine at position 708 (the only Tyr of the peptide)) [peptide Y708P short]
